Some of the results follow. Values are raw readings; no control value is given beside them.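 In the initial screen, polymyxin B was used at a concentration that permeabilizes Salmonella's outer membrane but not its inner membrane. Maximum growth was set by DMSO wells with or without polymyxin B. Since plates varied, data were ranked per plate, and compounds giving the lowest OD600 advanced as hits.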
Test system: Salmonella enterica serovar Typhimurium SL1344
Assay: bacterial growth OD600 after 18 h with compound and polymyxin B; higher = more bacterial growth (less inhibition)
Details: 50 µM, Mueller-Hinton broth

| Compound | bacterial growth OD600 (polymyxin B 1 µg/mL) | bacterial growth OD600 (polymyxin B 0.75 µg/mL) |
| --- | --- | --- |
| Cc1cc(CN2CCC(O)(Cc3cc(-c4ccccc4)no3)CC2)cc(C)c1O | 0.87 |  |
| Cc1c(C(C)NC(=O)c2ccc3c(c2)C(=O)N(C)C3=O)cnn1-c1ccccn1 (stereo unspecified) | 0.988 |  |
| Cc1ccsc1C(=O)N1CCCC(N2CCN(Cc3ccc4c(c3)OCO4)CC2)C1 (stereo unspecified) | 0.865 |  |
| Cc1ccccc1N1CCN(c2ncccc2CNC(=O)C2CCOCC2)CC1 | 0.901 |  |
| CC(C)CCNC(=O)c1cn(CC(C)C)cc(C(=O)N2CCCCC2c2cccnc2)c1=O (stereo unspecified) |  | 0.907 |
| COc1ccc2ccccc2c1CN1CCCC(CO)(Cc2ccc(F)cc2)C1 (stereo unspecified) | 0.031 |  |
| O=C(c1ccc2oc(-c3cccc(F)c3)nc2c1)N1CCOc2ccccc2C1 | 1.14 |  |
| COc1ccc(-c2ccccc2NC(=O)C2CCCN(Cc3c[nH]c(C)n3)C2)cc1 (stereo unspecified) |  | 0.836 |
| CCOC(=O)N1CCN(Cc2ccc3c(c2)CN(C(=O)C#Cc2ccccc2)CCO3)CC1 |  | 0.734 |
| FC(F)(F)c1cccc(N2CCN(C3CCCN(C4CCC4)C3)CC2)c1 (stereo unspecified) | 0.923 |  |
| COc1cc(C)ccc1OCc1nc(C(=O)NCc2cccc(C)n2)co1 | 0.966 |  |
| CCOc1ccccc1-c1nc(CN2CCCCC2c2cccc(OC)c2)c(C)o1 (stereo unspecified) | 0.222 |  |
| COc1cccc(CC(=O)N2CCC3(CC2)c2ccccc2[C@@H](NC(=O)c2ccncc2)[C@@H]3OC)c1 |  | 1.02 |
| CCc1ocnc1C(=O)NC1CC(=O)N(Cc2ccccc2C(F)(F)F)C1 (stereo unspecified) | 1.08 |  |
| Cn1ccnc1CN1CCCC1C(=O)Nc1cccc(-n2cccn2)c1 (stereo unspecified) |  | 0.762 |
| CCCn1ncc(C(=O)NCc2cccnc2Oc2ccccc2C)c1C |  | 0.914 |

| Compound | bacterial growth OD600 (polymyxin B 1 µg/mL) | bacterial growth OD600 (polymyxin B 0.75 µg/mL) |
| --- | --- | --- |
| CCC1CN(CCNC(=O)C2CC(=O)N(CCOC)C2)Cc2cc(OC)ccc2O1 (stereo unspecified) |  | 0.865 |
| O=C(CC1CCCCC1)Nc1nc2c(s1)C(=O)CC(C(=O)N1CCN(C(=O)c3ccco3)CC1)C2 (stereo unspecified) |  | 0.744 |
| Cc1ccc(CN2CCC(C(=O)Nc3ccc(Oc4cccnc4)cc3)CC2)cc1 | 0.726 |  |
| O=C1CCCN1CC1CCN(C(=O)c2ccc(NC3CCC3)nc2)CC1 |  | 0.746 |
| COc1ccccc1CNC(=O)c1c(OC)cc(=O)n2c1CCN(Cc1ccc3ccccc3c1)CC2 |  | 0.772 |
| COc1cc2nc(N(C)C)c(CNCCc3ccccc3Cl)cc2c(OC)c1OC |  | 0.711 |
| CCOC(=O)C1(CCc2ccccc2)CCN(C(=O)C(C)n2ccnc2C(C)C)CC1 (stereo unspecified) |  | 0.798 |
| CCOC(=O)C1(Cc2ccc(F)cc2)CCCN(C(=O)c2cc(C(C)C)no2)C1 (stereo unspecified) | 0.011 |  |
| CC(C)(C)NC(=O)C1CCCN(C2CCN(Cc3ccncc3)CC2)C1 (stereo unspecified) | 0.952 |  |
| O=C(NCC1CCCO1)c1cc(Cl)ccc1OC1CCN(C2CCCC2)CC1 (stereo unspecified) |  | 0.767 |
| O=C(c1cc(COc2ccc3c(c2)OCO3)[nH]n1)N1CCC[C@H]1CO | 0.889 |  |
| COc1ccc(CCN2CC(NC(=O)Cc3cccc(C)c3)CC2=O)cc1 (stereo unspecified) | 0.495 |  |
| O=C(NC1CC(=O)N(Cc2cccc(F)c2)C1)c1cccnc1 (stereo unspecified) | 1.09 |  |
| Cc1ccccc1CCN1CCCC(CN(C)C(=O)Nc2ccccc2)C1 (stereo unspecified) | 1.1 |  |
| O=C(CC1=CCCCC1)N1CCCC(Nc2ccc3c(c2)OCCO3)C1 (stereo unspecified) | 0.45 |  |

Quoted at random: two records from the list

| Compound | bacterial growth OD600 (polymyxin B 1 µg/mL) | bacterial growth OD600 (polymyxin B 0.75 µg/mL) |
| --- | --- | --- |
| Cc1ccc(CN2CCC(C(=O)Nc3ccc(Oc4cccnc4)cc3)CC2)cc1 | 0.726 |  |
| O=C(CC1=CCCCC1)N1CCCC(Nc2ccc3c(c2)OCCO3)C1 (stereo unspecified) | 0.45 |  |

Source: the supplement of paper PMC12889115
